Where a name gives a salt, the structure may show the parent alone. Some results were stated once for a whole list of compounds, not compound by compound.
Assay: Water solubility
Format: physicochemical

SMILES | water solubility
O=C(CCCN1CCC(C(=O)c2ccc(F)cc2)CC1)c1ccc(F)cc1 [Example 1, 4-(p-Fluorobenzoyl)-1-[3-(p-fluorobenzoyl)propyl]piperidine Hydrochloride] | water soluble
O=C(CCCN1CCC(C(=O)c2ccc(F)cc2)CC1)c1ccc(Cl)cc1 [Example 2, 4-(p-Fluorobenzoyl)-1-[3-(p-chlorobenzoyl)propyl]piperidine Hydrochloride] | water soluble
O=C(CCCN1CCC(C(=O)c2ccc(Cl)cc2)CC1)c1ccc(F)cc1 [Example 3, 4-(p-Chlorobenzoyl)-1-[3-(p-fluorobenzoyl)propyl]piperidine Hydrochloride] | water soluble
O=C(CCCN1CCC(C(=O)c2ccc(Cl)cc2)CC1)c1ccc(Cl)cc1 [Example 4, 4-(p-chlorobenzoyl)-1-[3-(p-chlorobenzoyl)propyl]piperidine Hydrochloride] | water soluble

Source: patent US4101662A, “Method for inhibiting emesis and compositions therefor” (priority 1973, dated 1978)
